Measurements taken from publication PMC3401193.
No constants are given. Whether binding was seen depends on the method and setting. In cells and extracts the contact can be indirect. Some binding calls cover weakened binding; strength is not graded here.

By UniProt entry, the sequences of proteins in these tests, tags left out.
UniProt P49841: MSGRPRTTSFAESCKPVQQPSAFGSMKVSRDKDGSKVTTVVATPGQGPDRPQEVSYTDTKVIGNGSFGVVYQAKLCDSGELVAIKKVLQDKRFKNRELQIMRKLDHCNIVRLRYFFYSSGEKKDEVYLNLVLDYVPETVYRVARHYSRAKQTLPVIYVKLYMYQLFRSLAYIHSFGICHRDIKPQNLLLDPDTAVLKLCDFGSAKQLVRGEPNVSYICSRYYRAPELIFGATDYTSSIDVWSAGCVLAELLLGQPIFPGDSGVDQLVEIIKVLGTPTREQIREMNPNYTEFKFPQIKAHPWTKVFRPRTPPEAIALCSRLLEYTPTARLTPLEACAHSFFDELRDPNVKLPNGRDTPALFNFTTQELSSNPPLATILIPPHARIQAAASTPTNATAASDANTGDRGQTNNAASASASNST

T1: mitochondrial transcription factor A (human (endogenous in HepG2)) (UniProt Q00059)
T1 sequence: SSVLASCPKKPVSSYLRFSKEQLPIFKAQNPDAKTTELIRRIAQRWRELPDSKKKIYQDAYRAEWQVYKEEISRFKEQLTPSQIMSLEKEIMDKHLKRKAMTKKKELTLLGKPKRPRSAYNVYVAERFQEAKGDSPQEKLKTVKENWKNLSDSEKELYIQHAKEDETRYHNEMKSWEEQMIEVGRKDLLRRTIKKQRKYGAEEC


Columns and labels:
[1] = target: Glycogen Synthase Kinase 3 beta (human (endogenous in HepG2)) (UniProt P49841); assay: co-IP; mitochondrial fractions of HepG2 cells treated for 0 or 1 h with 30 ng/ml TNF-α; precipitated with polyclonal antibodies against GSK3β, p53 (FL-393) or TFAM on agarose protein A/G Plus beads, with IgG or no antibody as control; Western blot
[2] = target: T1, mitochondrial transcription factor A (human (endogenous in HepG2)); assay: as above

Row | binding [1] | binding [2] | Molecule
1 | binds | binds | tumor suppressor p53 (from UniProt P04637 1-393)
2 | no binding |  | mitochondrial transcription factor A (protein, UniProt Q00059 43-246) SSVLASCPKKPVSSYLRFSKEQLPIFKAQNPDAKTTELIRRIAQRWRELPDSKKKIYQDAYRAEWQVYKEEISRFKEQLTPSQIMSLEKEIMDKHLKRKAMTKKKELTLLGKPKRPRSAYNVYVAERFQEAKGDSPQEKLKTVKENWKNLSDSEKELYIQHAKEDETRYHNEMKSWEEQMIEVGRKDLLRRTIKKQRKYGAEEC
